These are yes or no findings as the source states them, for the method shown. Some entries that bind do so weakly or less than the wild type.
Target: murine WSX receptor fused to a gD tag (murine) (UniProt P48356)
Experiment: capture ELISA, murine WSX receptor-gD (see Example 13)

Protein sequences, listed by entry. Tags and fused reporters are not part of them. Lines headed by an entry give the natural chain unless they say otherwise; changes in a name come on top.
UniProt P48356: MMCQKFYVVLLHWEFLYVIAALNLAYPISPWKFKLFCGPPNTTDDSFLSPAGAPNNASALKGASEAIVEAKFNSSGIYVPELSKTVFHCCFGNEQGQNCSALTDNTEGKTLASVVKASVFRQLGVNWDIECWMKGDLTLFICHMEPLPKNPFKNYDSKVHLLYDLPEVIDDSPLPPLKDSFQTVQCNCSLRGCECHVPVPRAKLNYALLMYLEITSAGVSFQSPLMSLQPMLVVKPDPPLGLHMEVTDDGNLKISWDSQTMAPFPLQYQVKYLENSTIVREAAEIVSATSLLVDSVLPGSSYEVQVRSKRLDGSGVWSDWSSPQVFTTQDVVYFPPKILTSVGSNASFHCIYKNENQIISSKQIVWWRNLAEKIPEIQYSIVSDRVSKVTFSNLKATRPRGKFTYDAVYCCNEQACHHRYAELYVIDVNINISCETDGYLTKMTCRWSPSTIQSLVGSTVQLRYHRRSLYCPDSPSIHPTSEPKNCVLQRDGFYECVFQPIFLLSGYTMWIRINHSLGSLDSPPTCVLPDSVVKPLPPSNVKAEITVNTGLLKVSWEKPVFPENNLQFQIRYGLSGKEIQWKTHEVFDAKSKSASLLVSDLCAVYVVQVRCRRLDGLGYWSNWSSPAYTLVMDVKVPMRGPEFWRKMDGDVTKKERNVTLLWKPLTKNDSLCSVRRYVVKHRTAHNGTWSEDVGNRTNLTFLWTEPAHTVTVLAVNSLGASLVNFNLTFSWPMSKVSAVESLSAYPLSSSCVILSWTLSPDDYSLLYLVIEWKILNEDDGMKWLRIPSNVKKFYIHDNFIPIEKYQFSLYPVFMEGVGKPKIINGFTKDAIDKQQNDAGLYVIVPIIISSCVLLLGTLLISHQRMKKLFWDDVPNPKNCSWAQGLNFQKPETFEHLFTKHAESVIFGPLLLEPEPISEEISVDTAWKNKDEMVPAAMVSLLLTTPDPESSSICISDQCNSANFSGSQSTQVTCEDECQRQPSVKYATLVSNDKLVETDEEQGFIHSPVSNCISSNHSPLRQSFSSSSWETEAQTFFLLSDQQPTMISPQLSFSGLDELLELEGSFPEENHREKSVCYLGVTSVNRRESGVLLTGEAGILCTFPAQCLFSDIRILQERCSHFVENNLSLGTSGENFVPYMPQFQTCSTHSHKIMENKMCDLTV

Binder	binding
agonist antibody clone #4 scFv (scFv) scFv: EVQLVQSGAEVKKPGESLKISCQGSGFTFSSYKMNWVRQAPGKGLEWMGGIIPIFGTANYAQKFQGRVTITADESTSTAYMELSSLRSEDTAVYYCARDRVVVPATSLRGGMDVWGQGTTVTVSSGGGGSGGGGSGGGGSQSVLTQPASVSGSPGQSITISCTGTSSDVGGYNYVSWYQQHPGKAPKLMIYEGSKRPSGVSNRFSGSKSGSTASLTISGLQAEDEADYYCSSYTTRSTRVFGGGTKLTVL	binds
agonist antibody clone #17 scFv (scFv, Human scFv from a phage library; tested as scFv phage and as soluble scFv) scFv: QVRLQQSGGGLVQPGRSLRLSCAASGFTFDDYAMHWVRQAPGKGLEWVSGMTWNSGSIGYADSVKGRFTISRDNAKNSLYLQMNSLRAEDTAVYYCAREPHNTDAFDIWGRGTLVTVSSGGGGPGGGGSGGGGSDVVMTQSPSFLSAFVGDTITITCRASQGIYNYLAWYQQKPGKAPKLLIYAASTLQSGVPSRFSGSGSGTEFTLTISSLQPEDFGTYYCQQLISYPLTFGGGTKVEIK	binds

— patent US20020193571A1 (published 2002)
